Laboratory results: PubChem BioAssay AID1671195 (Yale University, 2021)

Assay: 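Regulators of LDL receptor activity judged by labelled LDL uptake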 (primary screen)
Cell system: human Huh7 hepatoma cells
Reagents: siRNA pool against human genes, 18 nM
Time to read-out: about 2 to 2.5 days of knockdown, then 8 h LDL uptake
Conditions: DiI-labelled LDL at 30 µg/ml for 8 h, in lipoprotein-deficient serum medium
Measurement: 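Per-cell DiI-LDL intensity by automated imaging; well means scaled to the plate median and given as a robust z-score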
Reading the numbers: robust z-score: higher = more LDL uptake after knockdown
Active means: 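Active when two or more replicates show a robust z-score above 2 or below -2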
Here is a random part of about 22,000 deposited reagents. About 1,510 of all reagents (6.9%) were called active. 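Active includes knockdowns raising or lowering LDL uptake; positive z-scores mean more uptake, negative mean less.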

no.	gene	robust z-score, replicate 1	robust z-score, replicate 2	robust z-score, replicate 3	call
1	MEOX2	-0.566	-1.08	-0.16	inactive
2	SMIM9	-0.9	-0.679	-0.862	inactive
3	RGS22	0.587	-2.11	0.628	inactive
4	LOC149709 (retired record)	-1.03	-1.55	-0.277	inactive
5	SKIC2	-0.191	-0.532	-0.617	inactive
6	ABCC9	-0.029	0.104	-0.115	inactive
7	LOC389150 (retired record)	-0.788	-1.01	-1.24	inactive
8	LIN7A	-1.08	0.113	0.0512	inactive
9	TMEM94	0.791	0.337	2.23	inactive
10	PIK3R1	-1.48	-2.08	-1.68	inactive
11	APCS	1.49	0.941	1.31	inactive
12	GPR52	0.0416	0.301	0.933	inactive
13	SP2	0.938	1.42	0.9	inactive
14	KIF12	-1.21	-1.02	-1.39	inactive
15	LOC441028 (retired record)	0.198	1.79	1.3	inactive
16	PROCA1	1.45	2.33	3.18	active
17	F2R	-1.38	-0.766	-1.54	inactive
18	GNL3L	0.892	0.846	-1.72	inactive
19	ARL6IP1	4.58	1.96	1.74	active
20	TFCP2	-0.437	-0.033	-0.554	inactive
21	CHIAP2	1.32	-0.231	0.894	inactive
22	ANGPTL4	-0.08	0.0684	0.188	inactive
23	ITGA10	0.344	-0.395	-0.934	inactive
24	CARHSP1	-0.181	-2.14	-0.881	inactive
25	RRAGC	-1.16	-0.235	-0.0458	inactive
26	ANKRD50	-0.576	-0.3	0.331	inactive
27	UPK1A	-1.11	-1.9	-0.81	inactive
28	ASNSD1	-0.228	-0.422	-0.0872	inactive

Laid out differently: entries from further up.
F2R → robust z-score, replicate 1: -1.38; robust z-score, replicate 2: -0.766; robust z-score, replicate 3: -1.54; call: inactive
GNL3L → robust z-score, replicate 1: 0.892; robust z-score, replicate 2: 0.846; robust z-score, replicate 3: -1.72; call: inactive
